Test results as given in PMC4542307.
No constants are given. Whether binding was seen depends on the method and setting. Binding seen in cells or lysates may run through a third protein. Some results given as binding are weak or reduced against the parent protein; the word gives no strength.

Protein sequences, listed by entry. Tags and fused reporters are not part of them.
UniProt Q60610: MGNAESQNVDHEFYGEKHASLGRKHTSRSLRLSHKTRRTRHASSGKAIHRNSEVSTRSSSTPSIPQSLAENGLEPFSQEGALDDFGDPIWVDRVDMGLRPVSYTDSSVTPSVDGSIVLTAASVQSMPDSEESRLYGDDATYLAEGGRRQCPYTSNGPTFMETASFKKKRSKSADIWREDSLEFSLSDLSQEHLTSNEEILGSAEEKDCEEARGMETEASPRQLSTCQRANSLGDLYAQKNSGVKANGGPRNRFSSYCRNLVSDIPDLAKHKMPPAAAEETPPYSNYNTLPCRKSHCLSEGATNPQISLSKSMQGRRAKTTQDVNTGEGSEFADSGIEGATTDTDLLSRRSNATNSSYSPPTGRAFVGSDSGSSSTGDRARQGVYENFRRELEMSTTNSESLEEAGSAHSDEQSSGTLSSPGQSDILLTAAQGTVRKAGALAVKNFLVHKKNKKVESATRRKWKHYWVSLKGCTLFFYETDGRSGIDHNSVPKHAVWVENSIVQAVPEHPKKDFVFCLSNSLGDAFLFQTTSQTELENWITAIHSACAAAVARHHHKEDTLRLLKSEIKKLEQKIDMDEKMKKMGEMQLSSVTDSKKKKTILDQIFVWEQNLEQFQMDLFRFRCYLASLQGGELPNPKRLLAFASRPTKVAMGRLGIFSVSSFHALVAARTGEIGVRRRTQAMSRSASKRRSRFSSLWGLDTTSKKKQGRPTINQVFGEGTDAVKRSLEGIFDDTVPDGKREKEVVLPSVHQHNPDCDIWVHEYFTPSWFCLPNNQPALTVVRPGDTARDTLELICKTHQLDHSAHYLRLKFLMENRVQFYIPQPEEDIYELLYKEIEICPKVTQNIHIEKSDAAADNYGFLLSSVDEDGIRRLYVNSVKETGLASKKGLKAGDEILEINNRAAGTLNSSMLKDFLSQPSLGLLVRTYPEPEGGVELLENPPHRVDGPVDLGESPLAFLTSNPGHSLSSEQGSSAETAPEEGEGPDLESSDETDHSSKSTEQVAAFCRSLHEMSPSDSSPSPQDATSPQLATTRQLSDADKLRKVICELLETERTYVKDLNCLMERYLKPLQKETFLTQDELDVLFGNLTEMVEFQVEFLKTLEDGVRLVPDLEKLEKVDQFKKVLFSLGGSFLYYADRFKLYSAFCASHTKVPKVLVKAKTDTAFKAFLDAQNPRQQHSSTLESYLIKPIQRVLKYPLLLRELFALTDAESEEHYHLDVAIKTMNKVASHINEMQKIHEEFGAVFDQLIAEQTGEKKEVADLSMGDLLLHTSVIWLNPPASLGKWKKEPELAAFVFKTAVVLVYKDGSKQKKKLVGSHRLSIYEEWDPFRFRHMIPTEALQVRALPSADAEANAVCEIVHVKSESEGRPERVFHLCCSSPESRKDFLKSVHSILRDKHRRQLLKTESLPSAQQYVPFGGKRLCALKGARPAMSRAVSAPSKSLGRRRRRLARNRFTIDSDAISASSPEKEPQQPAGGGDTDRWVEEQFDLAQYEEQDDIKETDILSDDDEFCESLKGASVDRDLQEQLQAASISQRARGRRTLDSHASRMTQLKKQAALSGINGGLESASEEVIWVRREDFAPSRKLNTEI
UniProt Q7Z6Z7: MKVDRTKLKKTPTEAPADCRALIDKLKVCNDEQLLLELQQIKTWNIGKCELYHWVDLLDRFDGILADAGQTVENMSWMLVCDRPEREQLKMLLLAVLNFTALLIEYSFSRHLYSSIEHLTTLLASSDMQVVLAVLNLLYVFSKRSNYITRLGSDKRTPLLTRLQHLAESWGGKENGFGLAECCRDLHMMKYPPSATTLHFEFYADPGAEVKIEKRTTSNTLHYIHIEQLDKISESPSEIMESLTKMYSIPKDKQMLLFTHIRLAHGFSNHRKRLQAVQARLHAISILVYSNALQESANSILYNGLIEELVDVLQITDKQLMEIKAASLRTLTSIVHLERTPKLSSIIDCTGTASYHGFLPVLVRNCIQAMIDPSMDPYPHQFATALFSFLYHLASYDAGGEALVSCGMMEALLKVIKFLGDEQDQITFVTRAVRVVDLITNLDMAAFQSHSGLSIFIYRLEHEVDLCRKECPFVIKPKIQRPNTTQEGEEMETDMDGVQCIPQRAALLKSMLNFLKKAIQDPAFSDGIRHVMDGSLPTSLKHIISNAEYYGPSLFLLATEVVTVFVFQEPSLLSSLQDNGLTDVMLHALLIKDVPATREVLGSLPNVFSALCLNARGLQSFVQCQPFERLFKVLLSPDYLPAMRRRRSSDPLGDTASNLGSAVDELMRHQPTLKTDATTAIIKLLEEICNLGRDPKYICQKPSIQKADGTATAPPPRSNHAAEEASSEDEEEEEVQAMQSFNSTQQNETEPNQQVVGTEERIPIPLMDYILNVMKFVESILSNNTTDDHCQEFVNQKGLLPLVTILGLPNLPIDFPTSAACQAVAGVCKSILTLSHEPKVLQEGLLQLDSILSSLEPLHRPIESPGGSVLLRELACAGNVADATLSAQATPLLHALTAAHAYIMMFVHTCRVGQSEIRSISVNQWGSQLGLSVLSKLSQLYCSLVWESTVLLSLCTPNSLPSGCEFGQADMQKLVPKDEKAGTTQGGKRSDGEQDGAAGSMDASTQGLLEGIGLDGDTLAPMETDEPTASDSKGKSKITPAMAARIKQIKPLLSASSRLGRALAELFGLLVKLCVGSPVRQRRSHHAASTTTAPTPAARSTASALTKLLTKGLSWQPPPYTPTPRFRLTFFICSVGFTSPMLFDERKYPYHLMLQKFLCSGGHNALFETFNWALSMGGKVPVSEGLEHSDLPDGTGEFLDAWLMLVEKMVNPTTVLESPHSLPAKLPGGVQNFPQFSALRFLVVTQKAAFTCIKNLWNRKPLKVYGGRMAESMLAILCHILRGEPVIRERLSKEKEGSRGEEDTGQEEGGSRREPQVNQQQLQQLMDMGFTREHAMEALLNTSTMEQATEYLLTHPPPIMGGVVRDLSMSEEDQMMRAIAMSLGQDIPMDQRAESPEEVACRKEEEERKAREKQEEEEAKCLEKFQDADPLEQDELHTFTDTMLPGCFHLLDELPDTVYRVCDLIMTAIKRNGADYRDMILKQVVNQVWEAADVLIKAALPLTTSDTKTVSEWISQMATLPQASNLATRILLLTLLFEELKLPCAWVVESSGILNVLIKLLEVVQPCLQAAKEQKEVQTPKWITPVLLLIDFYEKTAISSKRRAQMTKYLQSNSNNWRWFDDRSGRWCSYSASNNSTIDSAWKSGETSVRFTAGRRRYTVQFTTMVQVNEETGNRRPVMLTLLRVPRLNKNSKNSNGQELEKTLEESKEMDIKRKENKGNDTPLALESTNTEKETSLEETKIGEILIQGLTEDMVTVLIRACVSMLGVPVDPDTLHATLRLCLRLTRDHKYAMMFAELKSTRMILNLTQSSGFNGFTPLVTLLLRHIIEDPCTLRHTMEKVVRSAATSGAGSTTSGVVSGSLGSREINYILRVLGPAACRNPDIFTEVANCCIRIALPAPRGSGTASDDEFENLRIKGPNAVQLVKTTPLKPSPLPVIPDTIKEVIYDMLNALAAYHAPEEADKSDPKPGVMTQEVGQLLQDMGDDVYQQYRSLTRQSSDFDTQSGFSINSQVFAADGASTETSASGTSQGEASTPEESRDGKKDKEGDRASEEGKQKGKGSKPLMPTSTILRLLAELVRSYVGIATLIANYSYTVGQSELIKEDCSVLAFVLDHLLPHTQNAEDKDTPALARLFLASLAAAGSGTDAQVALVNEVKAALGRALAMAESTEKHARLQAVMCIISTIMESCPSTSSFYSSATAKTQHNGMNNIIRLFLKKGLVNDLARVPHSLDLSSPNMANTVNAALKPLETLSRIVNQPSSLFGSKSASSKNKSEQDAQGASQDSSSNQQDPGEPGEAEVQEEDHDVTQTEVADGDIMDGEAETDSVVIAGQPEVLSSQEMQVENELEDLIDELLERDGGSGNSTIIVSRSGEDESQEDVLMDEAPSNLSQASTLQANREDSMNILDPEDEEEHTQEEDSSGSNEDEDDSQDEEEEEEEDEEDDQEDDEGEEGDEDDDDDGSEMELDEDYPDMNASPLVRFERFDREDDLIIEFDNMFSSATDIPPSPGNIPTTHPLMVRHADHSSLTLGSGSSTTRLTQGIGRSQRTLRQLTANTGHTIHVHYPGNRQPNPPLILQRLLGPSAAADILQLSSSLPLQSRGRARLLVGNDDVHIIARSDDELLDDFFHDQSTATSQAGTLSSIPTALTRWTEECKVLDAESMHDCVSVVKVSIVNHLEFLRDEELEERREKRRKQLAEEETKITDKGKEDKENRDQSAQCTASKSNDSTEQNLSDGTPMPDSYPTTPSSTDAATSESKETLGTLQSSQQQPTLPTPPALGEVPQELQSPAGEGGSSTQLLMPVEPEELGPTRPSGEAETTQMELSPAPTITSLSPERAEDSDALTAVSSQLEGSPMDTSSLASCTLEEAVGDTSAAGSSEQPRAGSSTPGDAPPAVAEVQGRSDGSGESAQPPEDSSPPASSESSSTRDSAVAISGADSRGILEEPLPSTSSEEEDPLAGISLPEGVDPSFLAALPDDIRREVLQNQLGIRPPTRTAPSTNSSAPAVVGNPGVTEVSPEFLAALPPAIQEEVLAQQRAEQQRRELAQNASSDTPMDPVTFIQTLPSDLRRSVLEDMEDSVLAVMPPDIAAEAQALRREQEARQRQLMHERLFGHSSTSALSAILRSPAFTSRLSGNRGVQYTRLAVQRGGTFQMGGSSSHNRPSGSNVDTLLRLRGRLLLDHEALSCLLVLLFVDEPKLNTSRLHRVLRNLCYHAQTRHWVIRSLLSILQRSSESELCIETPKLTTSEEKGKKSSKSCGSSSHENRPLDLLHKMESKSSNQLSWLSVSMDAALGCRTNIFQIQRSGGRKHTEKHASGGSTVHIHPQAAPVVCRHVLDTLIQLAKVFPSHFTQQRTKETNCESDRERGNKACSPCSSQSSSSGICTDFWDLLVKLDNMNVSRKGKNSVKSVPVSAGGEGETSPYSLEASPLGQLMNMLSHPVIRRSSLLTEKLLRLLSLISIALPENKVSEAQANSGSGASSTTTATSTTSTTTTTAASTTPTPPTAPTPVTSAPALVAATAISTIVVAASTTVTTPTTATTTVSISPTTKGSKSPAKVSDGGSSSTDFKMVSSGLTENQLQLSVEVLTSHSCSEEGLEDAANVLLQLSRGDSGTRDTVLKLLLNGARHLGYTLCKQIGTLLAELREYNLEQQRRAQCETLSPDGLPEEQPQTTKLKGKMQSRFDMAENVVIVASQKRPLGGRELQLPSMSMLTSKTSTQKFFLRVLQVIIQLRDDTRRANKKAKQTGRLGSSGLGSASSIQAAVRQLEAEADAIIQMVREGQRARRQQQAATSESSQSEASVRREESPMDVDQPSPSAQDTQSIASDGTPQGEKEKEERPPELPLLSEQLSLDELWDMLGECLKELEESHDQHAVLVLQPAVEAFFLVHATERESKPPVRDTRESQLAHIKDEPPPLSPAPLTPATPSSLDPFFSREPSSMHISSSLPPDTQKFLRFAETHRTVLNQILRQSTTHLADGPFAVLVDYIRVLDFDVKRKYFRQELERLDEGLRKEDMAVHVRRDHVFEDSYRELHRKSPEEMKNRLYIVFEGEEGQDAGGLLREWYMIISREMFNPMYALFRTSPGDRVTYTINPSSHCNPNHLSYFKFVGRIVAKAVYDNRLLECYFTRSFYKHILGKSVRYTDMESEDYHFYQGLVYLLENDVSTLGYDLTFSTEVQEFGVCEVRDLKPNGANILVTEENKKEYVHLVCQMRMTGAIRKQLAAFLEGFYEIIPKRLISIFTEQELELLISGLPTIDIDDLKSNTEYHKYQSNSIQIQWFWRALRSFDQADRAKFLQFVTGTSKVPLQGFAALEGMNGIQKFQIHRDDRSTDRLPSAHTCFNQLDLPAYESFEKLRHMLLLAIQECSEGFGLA

Biological target: exogenous TIAM1 in HEK293T cells (UniProt Q60610)
Assay: co-IP; exogenous TIAM1 in HEK293T cells (Figure S3A)

## HUWE1 in HEK293T cells (from UniProt Q7Z6Z7 1-4374) (enzyme)
  binding: binds
